# For part of these data: Strings that start with PEPTIDE1 are HELM notation: dots part the residues, brackets hold end groups and non-standard residues.
# B1: TAT-SHP2-N-SH2 fusion protein: TAT penetrating peptide connected to N-terminal SH2 domain of SHP2 through glycine and serine (TAT-Gly-Ser-N-SH2); SEQ ID NO.:4 (protein)
# chain: YGRKKRRQRRRGSRWFHPNITGVEAENLLLTRGVDGSFLARPSKSNPGDFTLSVRRNGAVTHIKIQNTGDYYDLYGGEKFATLAELVQYYMEHHGQLKEKNGDVIELKYPLN
# modifications: the fusion protein
# Legend:
# peptide synthesis = settings: whole synthesis, 220 nm
# T lymphocytes = test: Entry of FITC-labelled fusion protein and polypeptide into T lymphocytes, confocal microscopy; format: cell-based
Molecule,purity (crude or final not stated) (peptide synthesis),time until which the signal in T cells gradually weakened (T lymphocytes),time within which most of the substance enters T cells (T lymphocytes)
PEPTIDE1{[dY].G.[dR].[dK].[dK].[dR].[dR].[dQ].[dR].[dR].[dR].[dP].[dP].[dV].[dR].[dE].[dS].[dQ].[dS].[dH].[dP].G.[dD].[dF].[dV].[dL]}$$$$V2.0,99.27%,–,–
PEPTIDE1{Y.G.R.K.K.R.R.Q.R.R.R.P.P.V.R.E.S.Q.S.H.P.G.D.F.V.L}$$$$V2.0,96.74%,–,–
PEPTIDE1{[dL].[dV].[dF].[dD].G.[dP].[dH].[dS].[dQ].[dS].[dE].[dR].[dV].[dP].[dP].[dR].[dR].[dR].[dQ].[dR].[dR].[dK].[dK].[dR].G.[dY]}$$$$V2.0,96.66%,–,–
PEPTIDE1{L.V.F.D.G.P.H.S.Q.S.E.R.V.P.P.R.R.R.Q.R.R.K.K.R.G.Y}$$$$V2.0,98.1%,–,–
B1,–,120 h,≤ 24 h

# Source: US12558403B2 (GUANGDONG TAIHE MEDICINE SCIENCE & TECHNOLOGY CO., LTD, priority 2020, dated 2026)
